{"source": "PubChem BioAssay AID504744 (Drosophila RNAi Screening Center, 2011)", "purpose": "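Find genes whose loss alters insulin-driven dAkt phosphorylation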 (primary screen)", "system": "Drosophila Kc167 cells", "knock-down reagent": "long dsRNA against Drosophila genes, 250 ng dsRNA per well of a 384-well plate", "duration": "3 days of knock-down, then overnight serum-free starvation before stimulation", "treatment": "bovine insulin at 387 nM for 10 minutes after 12 h without serum", "measured": "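In-cell antibody fluorescence for phospho-dAkt in each well over DNA-dye signal, with log2 residuals expressed as z-scores adjusted for cell count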", "active means": "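Under insulin, a gene counts as a hit if the average z-score of two replicates lies above 2.5 or below -2.5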", "note": "The screen tested about 23,000 reagents; this is an unselected part of those with a known target gene and a result. Of all reagents, 98 (0.43%) got an active call. 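Only hit calls are given; the phospho-dAkt signals, z-scores and hit direction were not deposited.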 The numbers tell different reagents against one gene apart. Names joined by + are all predicted targets of the reagent."}
The first 5 records, ahead of the listing:
{"predicted target":"CG12868","dsRNA no.":1,"activity call":"inactive"}
{"predicted target":"CG10098","dsRNA no.":1,"activity call":"inactive"}
{"predicted target":"CG9021","dsRNA no.":1,"activity call":"inactive"}
{"predicted target":"Mst57Da + alpha4GT2","dsRNA no.":1,"activity call":"inactive"}
{"predicted target":"CG15286","dsRNA no.":1,"activity call":"inactive"}

Results, from the first entry:
{"predicted target":"CG12868","dsRNA no.":1,"activity call":"inactive"}
{"predicted target":"CG10098","dsRNA no.":1,"activity call":"inactive"}
{"predicted target":"CG9021","dsRNA no.":1,"activity call":"inactive"}
{"predicted target":"Mst57Da + alpha4GT2","dsRNA no.":1,"activity call":"inactive"}
{"predicted target":"CG15286","dsRNA no.":1,"activity call":"inactive"}
{"predicted target":"Doc1","dsRNA no.":1,"activity call":"inactive"}
{"predicted target":"CG31109","dsRNA no.":1,"activity call":"inactive"}
{"predicted target":"Esyt2","dsRNA no.":1,"activity call":"inactive"}
{"predicted target":"unc79","dsRNA no.":1,"activity call":"inactive"}
{"predicted target":"CG8613","dsRNA no.":1,"activity call":"inactive"}
{"predicted target":"CG8870","dsRNA no.":1,"activity call":"inactive"}
{"predicted target":"CG5339","dsRNA no.":1,"activity call":"inactive"}
{"predicted target":"dpr3","dsRNA no.":1,"activity call":"inactive"}
{"predicted target":"dpr3","dsRNA no.":2,"activity call":"inactive"}
{"predicted target":"dpr3","dsRNA no.":3,"activity call":"inactive"}
{"predicted target":"Irc","dsRNA no.":1,"activity call":"inactive"}
{"predicted target":"CG4409","dsRNA no.":1,"activity call":"inactive"}
{"predicted target":"CG5255","dsRNA no.":1,"activity call":"inactive"}
{"predicted target":"SRPK","dsRNA no.":1,"activity call":"inactive"}
{"predicted target":"CG11474","dsRNA no.":1,"activity call":"inactive"}
{"predicted target":"eIF4E4","dsRNA no.":1,"activity call":"inactive"}
{"predicted target":"CG14851","dsRNA no.":1,"activity call":"inactive"}
{"predicted target":"CG14851","dsRNA no.":2,"activity call":"inactive"}
{"predicted target":"CG32117","dsRNA no.":1,"activity call":"inactive"}
{"predicted target":"Hsp60D","dsRNA no.":1,"activity call":"inactive"}
{"predicted target":"bora","dsRNA no.":1,"activity call":"inactive"}
{"predicted target":"PIG-G","dsRNA no.":1,"activity call":"inactive"}
{"predicted target":"Rpt4","dsRNA no.":1,"activity call":"inactive"}
{"predicted target":"CG15822","dsRNA no.":1,"activity call":"inactive"}
{"predicted target":"CG15822","dsRNA no.":2,"activity call":"inactive"}
{"predicted target":"Sik3","dsRNA no.":1,"activity call":"inactive"}
{"predicted target":"Sik3","dsRNA no.":2,"activity call":"inactive"}
{"predicted target":"Abd-B","dsRNA no.":1,"activity call":"inactive"}
{"predicted target":"Abd-B","dsRNA no.":2,"activity call":"inactive"}
{"predicted target":"CG43345","dsRNA no.":1,"activity call":"inactive"}
{"predicted target":"tpr","dsRNA no.":1,"activity call":"inactive"}
{"predicted target":"brun","dsRNA no.":1,"activity call":"inactive"}
{"predicted target":"mud","dsRNA no.":1,"activity call":"inactive"}
{"predicted target":"Rab26","dsRNA no.":1,"activity call":"inactive"}
{"predicted target":"Rab26","dsRNA no.":2,"activity call":"inactive"}
{"predicted target":"Rab26","dsRNA no.":3,"activity call":"inactive"}
{"predicted target":"Sp212","dsRNA no.":1,"activity call":"inactive"}
{"predicted target":"Obp56h","dsRNA no.":1,"activity call":"inactive"}
{"predicted target":"Esp","dsRNA no.":1,"activity call":"inactive"}
{"predicted target":"Tctp","dsRNA no.":1,"activity call":"inactive"}
{"predicted target":"CG7544","dsRNA no.":1,"activity call":"inactive"}
{"predicted target":"DCTN4-p62","dsRNA no.":1,"activity call":"inactive"}
{"predicted target":"CG4957","dsRNA no.":1,"activity call":"inactive"}
{"predicted target":"Tsf2","dsRNA no.":1,"activity call":"inactive"}
{"predicted target":"CG7201","dsRNA no.":1,"activity call":"inactive"}
{"predicted target":"CG7366","dsRNA no.":1,"activity call":"inactive"}
{"predicted target":"CG43658","dsRNA no.":1,"activity call":"inactive"}
{"predicted target":"CG6983","dsRNA no.":1,"activity call":"inactive"}
{"predicted target":"RpL8","dsRNA no.":1,"activity call":"inactive"}
{"predicted target":"RpL8","dsRNA no.":2,"activity call":"inactive"}
{"predicted target":"ND1 (retired record)","dsRNA no.":1,"activity call":"inactive"}
{"predicted target":"upd3","dsRNA no.":1,"activity call":"inactive"}
{"predicted target":"upd3","dsRNA no.":2,"activity call":"inactive"}
{"predicted target":"upd3","dsRNA no.":3,"activity call":"inactive"}
